Results deposited as PubChem BioAssay AID1224830 (NIAID, 2016).
Shown is an unselected part of about 18,000 deposited reagents. In the full data, about 2,900 (16%) were called active. 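Calls are made per well; low scores hint the gene aids the LPS response, high scores that it dampens it.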 Repeated entries: four replicate wells of each siRNA pool. No sequences are given here.

Test: 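Genes whose knock-down alters the TNF-alpha reporter response to LPS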 (primary screen)
Cells: human THP-1 monocytic leukaemia cells, TNF dual-luciferase reporter clone, PMA-differentiated to macrophage-like cells
Reagent: siRNA pool against human genes, 50 nM
Duration: LPS for 4 h, given about 3 days after siRNA transfection
Challenge: bacterial LPS (TLR4 ligand), 10 ng/ml
Read-out: 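Ratio of firefly to renilla light, scaled to the plate median and expressed as a robust z-score per replicate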
Reading the numbers: TNF reporter robust z-score: higher = stronger TNF reporter response to LPS
Call rule: 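Each well counts as active if its z-score is over 2.8 or under -1.5; controls are left without a call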

With DERL2 (GeneID 51009), what does the deposit list?
TNF reporter robust z-score: -1.2; Outcome: inactive

For DERL2 (GeneID 51009), what does the deposit list?
TNF reporter robust z-score: -1.25; Outcome: inactive

What is on record for DERL2 (GeneID 51009)?
TNF reporter robust z-score: -1.21; Outcome: inactive

What is on record for DERL2 (GeneID 51009)?
TNF reporter robust z-score: -0.86; Outcome: inactive

How did the screen score H1-7 (GeneID 341567)?
TNF reporter robust z-score: 0.41; Outcome: inactive

What is on record for H1-7 (GeneID 341567)?
TNF reporter robust z-score: 0.95; Outcome: inactive

With H1-7 (GeneID 341567), how do the results read?
TNF reporter robust z-score: -0.46; Outcome: inactive

What is on record for H1-7 (GeneID 341567)?
TNF reporter robust z-score: 0.39; Outcome: inactive

Copied from the listing (3 entries):
H1-7 (GeneID 341567) — TNF reporter robust z-score: 0.95; Outcome: inactive
H1-7 (GeneID 341567) — TNF reporter robust z-score: -0.46; Outcome: inactive
H1-7 (GeneID 341567) — TNF reporter robust z-score: 0.39; Outcome: inactive

Continued.
How did the screen score LRRC49 (GeneID 54839)?
TNF reporter robust z-score: 1.35; Outcome: inactive

What did the screen give for LRRC49 (GeneID 54839)?
TNF reporter robust z-score: -0.2; Outcome: inactive

What is on record for LRRC49 (GeneID 54839)?
TNF reporter robust z-score: 0.32; Outcome: inactive

With LRRC49 (GeneID 54839), what does the deposit list?
TNF reporter robust z-score: 0.84; Outcome: inactive

With LGMN (GeneID 5641), how do the results read?
TNF reporter robust z-score: -1.33; Outcome: inactive

What is on record for LGMN (GeneID 5641)?
TNF reporter robust z-score: 0.42; Outcome: inactive

What is on record for LGMN (GeneID 5641)?
TNF reporter robust z-score: -0.31; Outcome: inactive

For LGMN (GeneID 5641), how do the results read?
TNF reporter robust z-score: -0.14; Outcome: inactive

Which result is listed for CEP104 (GeneID 9731)?
TNF reporter robust z-score: 0.85; Outcome: inactive

Which result is listed for CEP104 (GeneID 9731)?
TNF reporter robust z-score: -0.24; Outcome: inactive

Which result is listed for CEP104 (GeneID 9731)?
TNF reporter robust z-score: -0.82; Outcome: inactive

Which result is listed for CEP104 (GeneID 9731)?
TNF reporter robust z-score: -0.11; Outcome: inactive
